# This is one part of the list. Most values lie at the level of the controls, where differences are scatter.
# Protein sequences, listed by entry. Tags and fused reporters are not part of them. Lines headed by an entry give the natural chain unless they say otherwise; changes in a name come on top.
# UniProt Q9Z1K6: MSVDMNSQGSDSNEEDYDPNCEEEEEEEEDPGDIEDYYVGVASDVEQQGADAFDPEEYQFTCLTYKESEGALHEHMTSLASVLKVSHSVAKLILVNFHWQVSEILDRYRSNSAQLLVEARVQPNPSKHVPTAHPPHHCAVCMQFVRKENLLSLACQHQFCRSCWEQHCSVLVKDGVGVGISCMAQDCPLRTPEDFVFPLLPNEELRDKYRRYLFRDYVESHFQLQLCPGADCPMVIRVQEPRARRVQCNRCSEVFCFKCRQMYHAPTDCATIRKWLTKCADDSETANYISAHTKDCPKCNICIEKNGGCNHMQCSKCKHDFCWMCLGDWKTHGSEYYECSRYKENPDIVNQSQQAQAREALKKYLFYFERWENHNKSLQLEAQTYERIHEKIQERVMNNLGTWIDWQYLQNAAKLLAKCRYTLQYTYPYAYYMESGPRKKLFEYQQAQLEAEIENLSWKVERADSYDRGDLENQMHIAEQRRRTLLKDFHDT
# UniProt Q9Z1E3: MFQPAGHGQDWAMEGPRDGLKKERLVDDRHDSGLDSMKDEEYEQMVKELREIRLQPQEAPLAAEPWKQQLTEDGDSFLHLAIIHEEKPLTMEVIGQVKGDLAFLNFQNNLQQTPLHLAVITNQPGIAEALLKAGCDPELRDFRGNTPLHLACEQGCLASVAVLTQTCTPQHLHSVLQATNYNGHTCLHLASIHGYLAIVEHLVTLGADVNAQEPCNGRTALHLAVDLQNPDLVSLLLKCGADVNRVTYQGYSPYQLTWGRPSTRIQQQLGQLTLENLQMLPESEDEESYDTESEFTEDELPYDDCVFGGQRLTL
# UniProt Q9Z2J0: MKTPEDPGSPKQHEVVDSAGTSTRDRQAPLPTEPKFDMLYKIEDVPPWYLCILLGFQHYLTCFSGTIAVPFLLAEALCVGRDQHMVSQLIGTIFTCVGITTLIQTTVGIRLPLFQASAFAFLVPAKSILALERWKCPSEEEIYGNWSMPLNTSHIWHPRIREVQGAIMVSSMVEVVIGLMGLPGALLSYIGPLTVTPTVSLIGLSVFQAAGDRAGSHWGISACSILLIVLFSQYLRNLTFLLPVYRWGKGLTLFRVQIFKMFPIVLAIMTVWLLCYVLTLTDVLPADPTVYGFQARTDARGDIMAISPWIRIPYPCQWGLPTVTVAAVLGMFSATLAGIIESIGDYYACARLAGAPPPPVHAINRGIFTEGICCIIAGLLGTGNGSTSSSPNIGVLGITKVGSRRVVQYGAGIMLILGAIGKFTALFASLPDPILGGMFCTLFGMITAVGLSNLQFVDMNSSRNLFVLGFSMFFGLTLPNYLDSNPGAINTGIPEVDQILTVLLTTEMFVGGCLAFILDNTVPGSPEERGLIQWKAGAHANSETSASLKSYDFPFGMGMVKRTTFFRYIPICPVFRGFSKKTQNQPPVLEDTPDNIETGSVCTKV
# Compound: CN[C@@H]1C[C@H]2O[C@@](C)([C@@H]1OC)n1c3ccccc3c3c4c(c5c6ccccc6n2c5c31)C(=O)NC4 [staurosporine]
# Assay: log2 fold change of tryptic peptide abundance, ligand vs vehicle (limited proteolysis) (log2 ratio); higher = more trypsin-susceptible (destabilized)
# Conditions: ligand concentration: 20 uM; sample: mouse liver crude lysate; replicate design: treated separately
row,Target,log2 fold change
1,"UniProt Q9Z1K6 (peptide sequence: SCWEQHCSVLVK, peptide start residue: 162)",-0.467
2,"UniProt Q9Z1E3 (peptide sequence: HDSGLDSMKDEEYEQMVK, peptide start residue: 30)",0.203
3,"UniProt Q9Z2J0 (peptide sequence: TPEDPGSPK, peptide start residue: 3)",-0.271
